Assay results reported in publication PMC11040742.
These are yes or no findings as the source states them, for the method shown. Binding seen in cells or lysates may run through a third protein. Binding can be weak; no strength is given.

Target: T1, nEYFP-OsNAR2.1 (rice (Oryza sativa)) (UniProt Q6ZI50)
T1 sequence: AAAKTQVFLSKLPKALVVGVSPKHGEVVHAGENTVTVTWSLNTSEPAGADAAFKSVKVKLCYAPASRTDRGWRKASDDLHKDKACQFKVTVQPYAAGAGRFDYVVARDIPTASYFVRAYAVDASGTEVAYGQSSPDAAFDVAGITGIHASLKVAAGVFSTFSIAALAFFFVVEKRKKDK
Test: split reporter; BiFC with split EYFP, transient expression in rice blade protoplasts

binding: binds
Substance: OsPLDα1-cEYFP (rice (Oryza sativa)) (enzyme)
